Data as given in PubChem BioAssay AID504786 (Drosophila RNAi Screening Center, 2011)

Screen: 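Knock-downs reducing HIF reporter induction by the iron chelator DFO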 (primary screen)
Cell system: Drosophila S2 cells with a stable HIF luciferase reporter
Knock-down reagent: long dsRNA against Drosophila genes, about 0.2 µg dsRNA per well of a 384-well plate
Timing: three days of knock-down, then 20 h of DFO before reading
Challenge: desferrioxamine (DFO) at 100 µM, an iron chelator that mimics hypoxia, for 20 h
Detection: 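Firefly luciferase driven by the mouse ldh-a hypoxia-response element, measured after 20 h of 100 µM DFO; z-scores per plate, higher means more signal lost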
Scale: z-score: higher = stronger loss of HIF reporter signal
In all, the deposit lists about 21,000 reagents; below is an unselected part of those that have a named target and a result. 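Primary screen; positive scores mean lost reporter signal, so the sign may be inverted from the usual convention.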 The numbers tell different reagents against one gene apart. A plus sign joins genes that one reagent is predicted to hit.

The first 3 records as a preview:
| target | reagent | z-score, replicate 1 | z-score, replicate 2 | z-score, replicate 3 | z-score, replicate 4 |
| --- | --- | --- | --- | --- | --- |
| f-cup (flyers-cup) | 1 | 0.3 | 0.6 | – | – |
| CG17652 | 1 | 0.2 | -0.2 | – | – |
| CG14419 | 1 | -0.2 | -0.6 | – | – |

Results, from the start:
| target | reagent | z-score, replicate 1 | z-score, replicate 2 | z-score, replicate 3 | z-score, replicate 4 |
| --- | --- | --- | --- | --- | --- |
| f-cup (flyers-cup) | 1 | 0.3 | 0.6 | – | – |
| CG17652 | 1 | 0.2 | -0.2 | – | – |
| CG14419 | 1 | -0.2 | -0.6 | – | – |
| hdly (hadley) | 1 | 0.2 | -0.5 | – | – |
| CG10553 | 1 | 0.1 | 0.2 | – | – |
| Lfg (Lifeguard) | 1 | -0.2 | -0.6 | – | – |
| r + CG13012 | 1 | -0.4 | 0.1 | – | – |
| CG9624 | 1 | -0.1 | -0.2 | – | – |
| CG32643 | 1 | -0.3 | -0.3 | – | – |
| Pgant4 (Polypeptide N-Acetylgalactosaminyltransferase 4) | 1 | -0.3 | -0.5 | – | – |
| v (vermilion) | 1 | -0.3 | -0.6 | – | – |
| GckIII (Germinal centre kinase III) | 1 | 0.1 | 0.8 | – | – |
| Mst98Cb (Male-specific RNA 98Cb) | 1 | -0.5 | -0.4 | -0.2 | -0.3 |
| Cpr67Fb (Cuticular protein 67Fb) | 1 | -0.3 | -0.3 | – | – |
| CG9667 | 1 | 0.1 | 0.4 | – | – |
| jar (jaguar) | 1 | -0.4 | -0.1 | – | – |
| Bub1 (Bub1 kinase) | 1 | -0.2 | -0.4 | – | – |
| Smyd4-2 (SET and MYND domain containing, class 4, member 2) | 1 | -0.3 | -0.5 | – | – |
| Rbp1 (RNA-binding protein 1) | 1 | -0.4 | -0.1 | – | – |
| CG31088 | 1 | 0.1 | 0 | – | – |
| Vps13 (Vacuolar protein sorting 13) | 1 | -0.1 | -0.2 | – | – |
| CG2608 | 1 | 0 | 0.3 | – | – |
| Ttc19 (Tetratricopeptide repeat domain 19) | 1 | -0.3 | -0.9 | – | – |
| CG34203 | 1 | -0.3 | -0.3 | – | – |
| CG31551 | 1 | -0.4 | -0.6 | -0.1 | -0.2 |
| CG12853 | 1 | -0.6 | -0.4 | – | – |
| Karybeta3 (Karyopherin beta 3) | 1 | -0.3 | -0.3 | – | – |
| Usp32 (Ubiquitin specific protease 32) | 1 | -0.2 | 0.3 | – | – |
| CG9641 | 1 | -0.3 | 0.9 | – | – |
| Adi1 (Acireductone dioxygenase 1) | 1 | -0.2 | -0.2 | – | – |
| nAChRbeta1 (nicotinic Acetylcholine Receptor beta1) | 1 | 0 | -0.5 | – | – |
| nAChRbeta1 (nicotinic Acetylcholine Receptor beta1) | 2 | -0.3 | -0.3 | – | – |
| CG6409 | 1 | -0.2 | -0.3 | -1.1 | -0.2 |
| TwdlD (TweedleD) | 1 | -0.2 | 0.2 | – | – |
| alph (alphabet) | 1 | -0.3 | -0.3 | – | – |
| CG12391 | 1 | 0 | -0.1 | – | – |
| 14-3-3epsilon | 1 | 0.1 | 1.1 | – | – |
| Epac (Exchange protein directly activated by cAMP) | 1 | -0.8 | -0.3 | – | – |
| Epac (Exchange protein directly activated by cAMP) | 2 | -0.1 | 0.2 | – | – |
| Epac (Exchange protein directly activated by cAMP) | 3 | -0.4 | 0.4 | – | – |
| Dnai2 (dynein, axonemal, intermediate chain 2) | 1 | -0.2 | -0.1 | – | – |
| CG9632 | 1 | -0.3 | -0.2 | – | – |
| Gdh (Glutamate dehydrogenase) | 1 | -0.1 | 0.7 | – | – |
| CkIIalpha-i1 (CKII-alpha subunit interactor-1) | 1 | -0.3 | -0.2 | – | – |
| CG11999 | 1 | -0.3 | 0.2 | – | – |
| LanB2 (Laminin B2) | 1 | -0.2 | -0.3 | – | – |
| btz (barentsz) | 1 | -0.1 | 0.1 | – | – |
| tomboy20 | 1 | -0.2 | 0 | – | – |
| CG14949 | 1 | -0.4 | -0.3 | – | – |
| CG33128 | 1 | -0.3 | -0.6 | – | – |
| CG34160 | 1 | -0.1 | 0.1 | – | – |
| Act88F (Actin 88F) | 1 | 0.7 | 1.6 | – | – |
| CG11975 | 1 | -0.3 | -0.4 | – | – |
| pck (pickel) | 1 | -0.3 | -0.1 | – | – |
| mRNA-cap (mRNA-capping-enzyme) | 1 | 3.2 | 2 | – | – |
| Cyp6g1 (Cytochrome P450 6g1) | 1 | -0.2 | -0.4 | – | – |
| Rca1 (Regulator of cyclin A1) | 1 | 0.9 | 2.3 | – | – |
| CG31817 | 1 | -0.6 | -0.3 | – | – |
| CG31817 | 2 | -0.2 | 0.2 | 0.1 | 0.2 |
| CG7378 | 1 | -0.3 | -0.4 | – | – |
| bap (bagpipe) | 1 | -0.4 | -0.4 | – | – |
| side-V (sidestep V) | 1 | -0.4 | -0.3 | -0.7 | 0.1 |
| side-V (sidestep V) | 2 | -1 | -0.3 | – | – |
| CG15916 | 1 | -0.3 | -0.8 | – | – |
| CG15731 | 1 | -0.2 | 0 | – | – |
| CG5665 | 1 | -0.1 | 0 | – | – |
| Grip84 (Gamma-tubulin ring protein 84) | 1 | 0 | 0.2 | – | – |
| slpr (slipper) | 1 | -0.3 | 0 | – | – |
| CG5608 | 1 | 0 | 0 | – | – |
| CG32104 | 1 | 0 | 1.5 | – | – |
| CG32104 | 2 | -0.3 | -0.4 | – | – |
| CG4707 | 1 | 0.1 | 0.1 | – | – |
| rad (retired record) | 1 | -0.3 | -0.8 | 0.1 | 0.5 |
| CG8562 | 1 | -0.1 | -0.2 | – | – |
| Gr10b (Gustatory receptor 10b) | 1 | -0.2 | 0 | – | – |
| Etf-QO (Electron transfer flavoprotein-ubiquinone oxidoreductase) | 1 | -0.2 | 0.3 | – | – |
| Nup205 (Nucleoporin 205kD) | 1 | 0.2 | 1.5 | – | – |
| vtd (verthandi) | 1 | 0.1 | -0.2 | – | – |
| Mcm7 (Minichromosome maintenance 7) | 1 | 0.1 | 0.3 | – | – |
| Pink1 (PTEN-induced putative kinase 1) | 1 | -0.2 | -0.3 | – | – |
| Pp4-19C (Protein phosphatase 19C) | 1 | -1 | -1.6 | – | – |
| Pp4-19C (Protein phosphatase 19C) | 2 | -1 | -1.6 | – | – |
| CG8004 | 1 | -0.2 | -0.4 | – | – |
